Results from paper PMC7819943, “Rice protein-binding microarrays: a tool to detect cis-acting elements near promoter regions in rice”.
The other results are listed elsewhere or left out.

Amino acid sequences for entries named in this document (tags omitted).
UniProt Q0JBA9, entry or part of it: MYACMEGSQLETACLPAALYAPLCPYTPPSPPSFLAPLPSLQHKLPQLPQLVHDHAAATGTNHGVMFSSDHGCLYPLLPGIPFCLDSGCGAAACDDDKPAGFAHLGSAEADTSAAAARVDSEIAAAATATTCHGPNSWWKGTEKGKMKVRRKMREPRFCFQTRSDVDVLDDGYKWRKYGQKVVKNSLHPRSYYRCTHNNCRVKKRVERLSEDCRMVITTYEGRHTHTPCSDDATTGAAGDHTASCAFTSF

target: OsWRKY34 (Oryza sativa, UniProt Q0JBA9 1-250); assay: protein-binding microarray (RPBM); PBS, 2% BSA, 51.3 ng/ul salmon testes DNA, 50 uM zinc acetate, 200 nM TF, 25 C, 1 h; high values mean tight binding; conditions: protein: recombinant; tags: N-terminal polyhistidine and DsRed monomer fusion (pET32a); label: CyDye5-dUTP incorporated in the synthesized complementary strand; 3' TTTTT single-stranded linker to array surface; dsDNA, one strand shown
Outline: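 Binding signal here means per-feature fluorescence intensity in arbitrary units. The values were read on an Axon 4000B scanner after a custom Agilent array, double-stranded by primer extension with Cy5-dUTP, was incubated with 200 nM protein at 25 °C for 1 h in PBS with 2% BSA, salmon testes DNA and 50 µM zinc acetate, then washed. The proteins were transcription factors with an N-terminal polyhistidine tag and DsRed, expressed in E. coli BL21-CodonPlus and purified on Ni–NTA.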

Sequence	binding signal
TCCAAGAAAATATTTCCGAATTCGTTTCCGTTTTCGAAAACGGAGTCACCTAGTGCAG	8060 fluorescence intensity (a.u.)
GCATTTTATTTTCTTTTCTGAAACCTTTATATCATTTTTTCGGAGTCACCTAGTGCAG	11300 fluorescence intensity (a.u.)
TTGTAGTAGATTTTGTTGGTTATTTGAAGTGGTAATATGACGGAGTCACCTAGTGCAG	8520 fluorescence intensity (a.u.)
GAGGCGGGTGATAGCGCGGTGGGGCGGTGGCGGCGGTGGACGGAGTCACCTAGTGCAG	13000 fluorescence intensity (a.u.)
ATTGTTGGTAGTGTGATCTTCTCCCTGTTTTGCAACAATGCGGAGTCACCTAGTGCAG	8910 fluorescence intensity (a.u.)
GGGTCGTGAAGGAGACGGGGATGGATTTCTACGGGTGCATCGGAGTCACCTAGTGCAG	8150 fluorescence intensity (a.u.)
GTGGGGTGGCTTGATTTTTCCTTGAGTGAAATGGGTTGGACGGAGTCACCTAGTGCAG	11800 fluorescence intensity (a.u.)
GGTCAGGAAGCTCAATTTTTTTTTACACGGCATGAAATTCCGGAGTCACCTAGTGCAG	8630 fluorescence intensity (a.u.)
TTACTGCAACTAGTTTTTGATAACCTTTTCACATGAGTTCCGGAGTCACCTAGTGCAG	8140 fluorescence intensity (a.u.)
CCCAAACCTCACCGCCGCTCGATCCCATCCACCGCCCATGCGGAGTCACCTAGTGCAG	10900 fluorescence intensity (a.u.)
GTCCTGGTTGCCCTCGATCCGGCAGTTGAAGAAGATGCTCCGGAGTCACCTAGTGCAG	8720 fluorescence intensity (a.u.)
CCTGGACTCTCTCACTATATTTAACTTCATGACCACTCCGCGGAGTCACCTAGTGCAG	13000 fluorescence intensity (a.u.)
TTATCTCCTGTTTTCTTCTCAGGCTTTGCTAAAACGTGCTCGGAGTCACCTAGTGCAG	10800 fluorescence intensity (a.u.)
CACCCTTACCTTGGCCTCCTGTGCCGCTGCACATATATATCGGAGTCACCTAGTGCAG	8130 fluorescence intensity (a.u.)
GTTGGGAGGTGATAAAAAGTCTCCGCTTCCACAGCTTTGCCGGAGTCACCTAGTGCAG	8060 fluorescence intensity (a.u.)
ATTTTGCGAGCTTGGGGTTGGGCTCGAGCTCGGTTCGTTACGGAGTCACCTAGTGCAG	9980 fluorescence intensity (a.u.)
ATACACCACACTGCTGCATGCTCACCACCACACCTCACTCCGGAGTCACCTAGTGCAG	8430 fluorescence intensity (a.u.)
ATGTATGCGTTTAGTTTGTTGGTAATACCAATTGTTTAGTCGGAGTCACCTAGTGCAG	10600 fluorescence intensity (a.u.)
ATTCTCCACCCAATCCACACCAATCCCACGGGGAGAGAAACGGAGTCACCTAGTGCAG	8210 fluorescence intensity (a.u.)
TTTCATTATCTGTTGCTGTGATGTTCTTAGCTTCTATGTGCGGAGTCACCTAGTGCAG	10000 fluorescence intensity (a.u.)
TCCGGAATCCACTGCCTTGTTAGTTGCTGCACAGTTCACACGGAGTCACCTAGTGCAG	10500 fluorescence intensity (a.u.)

Sequence	binding signal
GGCCATATGTACTTCTCTTTTTCTTTTTCTTTTTTTGGAACGGAGTCACCTAGTGCAG	9630 fluorescence intensity (a.u.)
CGCTCTGCAGCGCCGCGTCCATCAGCCCCGCCTTCGCCACCGGAGTCACCTAGTGCAG	11200 fluorescence intensity (a.u.)
TCACGTTTTCCATCCATATCTTTTTTTTTTCCTGTCTTCTCGGAGTCACCTAGTGCAG	8280 fluorescence intensity (a.u.)
TATATATTGTTTTTTTTTACGTTGTTGGTTCCGGATGTGACGGAGTCACCTAGTGCAG	9930 fluorescence intensity (a.u.)
AAATCTCCACCTGATTCGGCGCTCGGCATTGGTCCCTGAACGGAGTCACCTAGTGCAG	9030 fluorescence intensity (a.u.)
GAAGAACCCGGCCCGACCCGACCCATTACCCAATAACCAGCGGAGTCACCTAGTGCAG	8310 fluorescence intensity (a.u.)
CGTCGCCGCCGCCGCCGCCAACACCAACCAACTGCGGCTTCGGAGTCACCTAGTGCAG	10600 fluorescence intensity (a.u.)
CCTCCGCGTCCATTTCCATCACGCTCCACTCGCCTCGCTGCGGAGTCACCTAGTGCAG	9320 fluorescence intensity (a.u.)
GCCTCCGCCGCCGCCGCCGCCCGCCGGCCATCTCCGTCGACGGAGTCACCTAGTGCAG	13900 fluorescence intensity (a.u.)
GGGAGGGGTGGTTCCTCGAGGTGTAGGTGGGTGGCGCGCTCGGAGTCACCTAGTGCAG	13300 fluorescence intensity (a.u.)
CCACAGATATTTTCTCCTTTTTTTTTCCTTTTTCTTTTTCCGGAGTCACCTAGTGCAG	14000 fluorescence intensity (a.u.)
CGAGCAGTCCCTTAATCTCTCTCTTAATATGAGTAAACATCGGAGTCACCTAGTGCAG	9230 fluorescence intensity (a.u.)
GCAACACCTCCCCTGTTCTTGCTCTGTTTCCTCACTCTGTCGGAGTCACCTAGTGCAG	10200 fluorescence intensity (a.u.)
ACACGCACACAAACCCTACCCCTATGAGCATTTTCGAAGACGGAGTCACCTAGTGCAG	9320 fluorescence intensity (a.u.)
GCTGCTCCCGACGACGTGCTTCATATCGCGCATGCCCTCTCGGAGTCACCTAGTGCAG	10200 fluorescence intensity (a.u.)
CATGCTTAGCTTCTGTACGTATGCACATCTACCTCTTCATCGGAGTCACCTAGTGCAG	10300 fluorescence intensity (a.u.)
AGTTCAGACTCCAACTTGGGTCAGATCTCGTTTCCATGACCGGAGTCACCTAGTGCAG	8150 fluorescence intensity (a.u.)
ACTAAATTTCACGAATATTACATCATTTTTTTCATCTCTTCGGAGTCACCTAGTGCAG	8680 fluorescence intensity (a.u.)
TATTGTTGTGACTTCCCTTGTCGCCAATGGCTTACTCATTCGGAGTCACCTAGTGCAG	10200 fluorescence intensity (a.u.)
GTGATCTTTGTTGTTGTGAGTTGTGACCGGCCTGCAGCCGCGGAGTCACCTAGTGCAG	9730 fluorescence intensity (a.u.)
TCAATCGTCGTCTCAAGCCTCTTAATTGGGCGCCTTTTCACGGAGTCACCTAGTGCAG	8210 fluorescence intensity (a.u.)

Retrieved one by one from above:
Sequence	binding signal
CGCTCTGCAGCGCCGCGTCCATCAGCCCCGCCTTCGCCACCGGAGTCACCTAGTGCAG	11200 fluorescence intensity (a.u.)
TATATATTGTTTTTTTTTACGTTGTTGGTTCCGGATGTGACGGAGTCACCTAGTGCAG	9930 fluorescence intensity (a.u.)
TTACTGCAACTAGTTTTTGATAACCTTTTCACATGAGTTCCGGAGTCACCTAGTGCAG	8140 fluorescence intensity (a.u.)
